Screen size: about 53,000 sequences; about 3,700 (7%) were called active.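 How the source made its calls: active means gene knockdowns whose robust z-score for IL-1 alpha signal is at least 2 or at most -2, so actives lie on both sides; inactive means the rest.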 Some of the results follow.
Assay: Components of the Cytosolic LPS Sensing Pathway: Gene Identification via Genome-wide siRNA Screen;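 further: robust z of the log signal after scaling to non-targeting control siRNA wells of the plate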
Conditions: RAW264.7 macrophages, IL-1a HTRF, actives lie on both sides, screened at 100 nM (by protocol), cells primed 5 h with Pam3CSK4 first
Procedure, shortened: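 Mouse macrophage line RAW264.7 is transfected with siRNA (100 nM final), grown 48h, primed with TLR ligand Pam3CSK4 5 h and given intracellular LipidA 24 h. IL-1a in supernatant is read by HTRF and viability by luminescence.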
With GGAAUCGAGAUCUUAAACATT against Itih1 the z-score was inactive: 0.27. In the case of UUGGAACACCCUUUCUCAATT against Olfr1206, the z-score is reported as inactive: 0.00737. With UCAAACUAGGUGCUGUUGUTT against Olfr584 the z-score was inactive: 0.998. In the case of CGACCACAUGAGGAUGCAUTT against Zbtb20, the z-score is reported as inactive: -0.974. In the case of GGAGUGGAAGAGAAAAUUUTT against Cts8, the z-score is reported as inactive: -0.0871. For GCUACAGCUUCAAUUAAAUTT against Birc6, the z-score was inactive: 0.135. For GGUGUUCCAGGUGAGAAAATT against Rps6kb2, the z-score was inactive: -0.296. In the case of GGCACAAAAUGACCAAAAUTT against Npy2r, the z-score is reported as inactive: -1.02. For GUGCUAGAAUACUUGACAGTT against H2ac1, the z-score was inactive: -1.5. With GGGCAGAAACGGAUAAUGGTT against Fgl1 the z-score was inactive: 0.667. For CGACUCUUACCAACCUUUUTT against Lhx2, the z-score was inactive: 0.477. For GGAGACAAAGACUUGUAAGTT against Triml1, the z-score was inactive: -0.39. With GGCCAUUUGAAUCUUCUUUTT against Pigr the z-score was inactive: -0.222. For GUCCAUUGCUUAGUGCGAUTT against Olfr961, the z-score was inactive: 0.371. With GCAGUCGCUUUGUUUUAUATT against Olfr1204 the z-score was inactive: -0.225. With GGUAGAGCGACAACUGGAUTT against Mcrip2 the z-score was inactive: -1.07. For GGAGAAUAGGAAUGUUUUUTT against Zfp112, the z-score was inactive: 1.32. In the case of GGAGACAAACUCAAAACUGTT against Lyplal1, the z-score is reported as inactive: -1.12. With CCAACAAAAGCCUAUUCGGTT against Hsh2d the z-score was inactive: -0.169. With GGAUUAAGUGCUCUUGGGUTT against Plscr4 the z-score was inactive: -0.357. With GGAAUCGGUGUAUUCGUUUTT against Sectm1b the z-score was inactive: 0.593. For GGCCAACUUGCUGGUAUUGTT against Irgq, the z-score was inactive: -1.19. In the case of GGAUUAAGGACAGUUUGAUTT against Mrpl16, the z-score is reported as inactive: 0.401. For GGCCAGUGGUUGUCUUAUGTT against Cyp2g1, the z-score was inactive: -0.621. With GCCAGAAUGUAUCCACGUGTT against Hspa12a the z-score was inactive: 1.58. With GGAACAGCAUUGGAUGAAGTT against Haus3 the z-score was inactive: 1.58. With CCUGAGCAUGAUGUGAAAUTT against Lgi4 the z-score was inactive: -1.36. In the case of GGAUCCUCUCAUUAAGAAATT against Gabra1, the z-score is reported as inactive: -1.15. For CCAUCUUGAAGAUUCGUUCTT against Olfr486, the z-score was inactive: -1.24. For GGUGAAGACACUCAAGGCUTT against Junb, the z-score was inactive: 1.21. With GGUUCCUAAAGUAAAAACCTT against Gnpnat1 the z-score was inactive: 1.04. In the case of GGCAGUUGUGAACUUUCUCTT against Telo2, the z-score is reported as inactive: 0.243. With CGAAACCAUACCAGUUACUTT against Pth1r the z-score was inactive: 1.37. In the case of GCUGUAGUUUCAGUAGAUUTT against Rnf168, the z-score is reported as inactive: -0.185. With GGCUGACCACAUUAUAAGUTT against Ppox the z-score was inactive: 0.165. With GGCCAGAGAAAUCUUGGUATT against Ppp4c the z-score was inactive: -0.877. In the case of GGUUCACAGAUGAUACCUUTT against Rab18, the z-score is reported as active: 4.59. In the case of GCUUCUACUCCAUAUUACGTT against Rbm4, the z-score is reported as inactive: -0.21. With GGUUGGUGAACUUGGAGGUTT against Hspa1a the z-score was inactive: 1.41. In the case of GGACGAGAAGCAAACUAUGTT against Pi16, the z-score is reported as inactive: -0.434. With GGAAACCUGGGCUUAGUCUTT against Olfr974 the z-score was inactive: 0.619. For GCUAAUAGGAGGACUUGACTT against Glrx3, the z-score was inactive: -0.938. With GGCAGACAUAAGGCUUUCUTT against Olfr1056 the z-score was inactive: -0.754. With GGUCACACAGACAUUGACATT against Tnn the z-score was inactive: 0.956. With GGAAACCUUUACCAUAAACTT against Epdr1 the z-score was active: -2.35. In the case of GGCUCAAUCCAAGUCUUCATT against Olfr173, the z-score is reported as inactive: 0.895. With GUUUUGGAUUCCUCUGUCATT against Olfr1097 the z-score was inactive: -1.69. In the case of GGAUAUGCUGAGGUGGUGGTT against Cpsf7, the z-score is reported as inactive: -1.07. For CCAGGGUAAAAUAAACGAATT against Ostf1, the z-score was inactive: -1.29. In the case of GCACAAAUGGGAAUACGACTT against Klhl36, the z-score is reported as inactive: -0.94. In the case of CCUCAAUCAAAAUGUAAGUTT against Atp6v0a2, the z-score is reported as inactive: 0.456. For CGGUACAUCAUUGCUGUCATT against Slc17a8, the z-score was active: -2.22. In the case of “GGGCAUCUUCCAUCUUCAATT against 4931428L18Rik”, the z-score is reported as inactive: -0.502. With GGCCCAGGUGCUAUUCUUUTT against Slc12a3 the z-score was inactive: 0.322. In the case of GGAUAUUUGAUCACUGUACTT against Vmn2r29, the z-score is reported as inactive: 1.1. In the case of GGUGCUGUUUGUAGACUCATT against Fkbp1a, the z-score is reported as inactive: 1.53. For CCGCUACGACAAGGACAAGTT against Thap1, the z-score was inactive: 0.897. For GCAGACCAUAGAUAAUUGGTT against Casp14, the z-score was inactive: -0.383. With GGCCUAAUGAAUUUGGUCATT against Ubxn7 the z-score was inactive: 0.93. With CCCUAAUCAGUUCACCAUCTT against Tgif2 the z-score was inactive: -1.68. In the case of GGACCAGGUAUUCAUGAUCTT against Sema3c, the z-score is reported as inactive: 0.976. For GGAUUGGUGAUCUAUGUGUTT against Dtd2, the z-score was inactive: -0.488. In the case of GCUUAUAUGGCCUGAGAGATT against Tmem199, the z-score is reported as inactive: -0.74. With CCAUCCAUCAACAAAGCCATT against Pde4d the z-score was inactive: 0.919. With GGAAUACAGGAAAAUCAAATT against Ell the z-score was inactive: 1.6. With GGAUUAUAUGCCAAGUGAUTT against Phyh the z-score was inactive: 0.179. With CGAUAAACUGGAUACCACUTT against Sntn the z-score was inactive: 0.437. In the case of GGGAAUGGAGGUCCAGAUUTT against Spatc1l, the z-score is reported as active: -2.33. With GGGAUACCCGGCGUAAUCUTT against Col4a2 the z-score was inactive: 1.31. For GUGUGUGGAGAAGCCAGGATT against Timm8b, the z-score was inactive: 0.00536. For GGGAUCAGAGGAAUGUAUCTT against Herc4, the z-score was inactive: -0.209. For GCAUAAGCUACUGCUGACATT against Pcdha6, the z-score was inactive: -0.782. For GGAGAUCGAUUUGGAAAACTT against Irx3, the z-score was inactive: -0.837. For GGCAACAUCAGAAUUGGAATT against Clcn2, the z-score was inactive: -0.958. For “GCUGGUCGUCAUCAAAUGUTT against 5031410I06Rik”, the z-score was inactive: -0.949. For GCAUCAGGCCCGUUCAGAATT against Ddx4, the z-score was active: 3.23. For GGAGACAGCAUUCAUUUAUTT against Wnt16, the z-score was inactive: 0.94. For GGGAACCUCACCAUUAUCATT against Olfr769, the z-score was inactive: -0.413. With GGAACUCAGAGUGUACGCATT against Arap3 the z-score was inactive: 1.6. With GGUUUUGCUAGUAAGAAAGTT against Trim3 the z-score was inactive: -1.26. With CCAUGAGACCUCUGAUAAATT against Atl3 the z-score was inactive: -0.172. In the case of CGUGUGGAUUUUAAUAGAATT against Wdpcp, the z-score is reported as inactive: -0.0571. With GCUGUGGUUGUCCAACAAGTT against Il17b the z-score was inactive: 0.185. For GGAAUACUAUGACAGGAAGTT against Tnfrsf1b, the z-score was inactive: -0.873. For GGCAUCCAUCAACAACAGGTT against Ahsa1, the z-score was inactive: -0.925. For GGGAUUGUGUGAAUCAUACTT against Tmem230, the z-score was inactive: -1.27. With GGAAGAGAUCUUAAACUUATT against Trpd52l3 the z-score was inactive: 1.07. In the case of GGGUAAGAAGAACAUGUAGTT against Tgfbi, the z-score is reported as inactive: -0.949. In the case of GGUGACAAAAAGUCAAAGATT against Dis3l2, the z-score is reported as inactive: -0.542. In the case of GGCAGAGACCUCAAAACCATT against Selplg, the z-score is reported as active: -2.33. With GGAACUAAUUUUCACAGAGTT against Lmod2 the z-score was inactive: 0.635. With GCAAUAAUGAGACCUGCACTT against Edem1 the z-score was inactive: -0.448. In the case of GGAGAUUACCGAAGCUGGUTT against Mpv17l2, the z-score is reported as inactive: -0.691. With CGUGACCUGAAAGUAUUUGTT against Gpc3 the z-score was inactive: -0.306. For CCGAGCUUAUCGACAGGUATT against Stk24, the z-score was inactive: 0.089. For GGUAGUGGGUGUCAAUGCATT against Sfmbt1, the z-score was inactive: 0.817. With CGAGAAGAUUACCAUAAAUTT against Homez the z-score was inactive: -1.82. For GCUUGGAAUAUAGGUUAUATT against Praf2, the z-score was inactive: 0.858. With GGAACACUGUGAGAACAAGTT against Peak1 the z-score was inactive: 0.124. For CCAAUUUUGUCAUAGGACATT against Plbd1, the z-score was inactive: -0.107. For GGUCUUUGUGCCAAUAGAGTT against Orc3, the z-score was inactive: -0.895. For CCCAGAGCUCCAAUUGCCUTT against Olfr938, the z-score was inactive: -0.713. For GGAGCUCUUUGCCAAGAAUTT against Rbbp8nl, the z-score was inactive: -0.0986. With GGAAAUGAAGCUCAUGGAATT against Dcdc5 the z-score was inactive: -1.44. With GGUGCUAGGAAUGAACGGGTT against Ripply1 the z-score was inactive: 0.478. For UACCAGAAGUACCUGUCCCTT against Lbx1, the z-score was active: 3.33. In the case of GGGAAAUGGAGAGAUUUUUTT against Tnpo1, the z-score is reported as inactive: -0.897.

From PubChem BioAssay AID1508600 (Functional Genomics Laboratory (NCATS/FGL), 2020)
